PubChem BioAssay AID624297 (National Center for Advancing Translational Sciences (NCATS), 2012)
In all, about 340,000 compounds went through this assay and about 6,200 (1.8%) were called active. The shares of active, inactive and inconclusive entries below differ from those in the screen. Calls come from the whole dose curve; as a rule, active = well fitted activation curve with a large enough effect; inconclusive = small, poorly fitted or top-dose-only effect; inactive = no such curve, though single readings can be large or run the other way. Where the call is inconclusive, the potency comes from a doubtful curve fit. The source holds several records for some structures; these can differ, active in one and inactive in another.
Potency is the fitted concentration of half-maximal effect.

Experiment: A quantitative high throughput screen for small molecules that induce DNA re-replication in SW480 colon adenocarcinoma cells. For re-replication activation: % of control where 0% means no effect. Note: nearly all actives have a fitted effect of over 55% in size.
Conditions: Hoechst DNA content imaging, 48 h; re-replication activation: at 46.1 µM (top of the series) unless noted
Method in brief: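 First, 250 cells per well were seeded. Next, compound or vehicle (23 nL) was pinned in, plates sat 48 hr at 37 C. Finally Hoechst was added for 40 min before fluorescence scanning.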
With `COc1ccc(-c2cn(-c3ccc(C)cc3)c(=O)n2CC(=O)Nc2ccc(OC)c(OC)c2)cc1` the Potency was inconclusive: 17.8 µM [activator, single point].
For `Cc1ccc2cc(CN(Cc3ccccc3)Cc3nnnn3C3CCCC3)c(=O)[nH]c2c1`, the Potency was inconclusive: 18.4 µM [activator, single point].
In the case of `NC(=S)NN=Cc1nccc2ccccc12`, the Potency is reported as active: 2.91 µM.
In the case of `c1ccc(CN=C2NN=C(c3cc4ccccc4o3)CS2)cc1`, the Potency is reported as inconclusive: 29.1 µM [activator, single point].
With `O=C1S/C(=C\C=C\c2ccco2)C(=O)N1c1ccccc1` the Potency was inconclusive: 29.1 µM [activator, single point].
In the case of `CC(C)(C)c1ccc(Cn2nnc3c(=O)[nH]c(C4CCN(C(=O)Cc5cccs5)CC4)nc32)cc1`, the Potency is reported as inconclusive: 16.4 µM [activator, single point].
For `CCOc1cc(CNc2ccc3cn[nH]c3c2)ccc1OC`, the Potency was inconclusive: 29.1 µM [activator, single point].
For `CC(C)Cn1c(-c2cccs2)nc2nc3ccccc3nc21`, the Potency was inconclusive: 29.1 µM [activator, single point].
For `CCN1CCN(C(c2cccs2)C(C)NS(=O)(=O)c2ccc(Br)cc2)CC1` (stereo not given), the “re-replication activation” value was inactive: -7.05%.
For `COc1ccccc1NC(=O)CCCn1c(=S)[nH]c2ccccc2c1=O`, the “re-replication activation” value was inactive: 9.52%.
For `O=C(NCCC1=CCCCC1)c1ccc(Cl)c(S(=O)(=O)Nc2ccccc2)c1`, the Potency was inconclusive: 29.1 µM [activator, partial curve, poor fit].
For `CN(CC(=O)Nc1ccncc1)S(=O)(=O)c1ccc(Br)cc1`, the Potency was inconclusive: 2.06 µM [activator, partial curve, poor fit].
For `COc1cc2c3nnc(-c4ccc(F)cc4)c-3cn(Cc3ccc(F)cc3)c2cc1OC`, the Potency was inconclusive: 29.1 µM [activator, single point].
In the case of `Cc1cc(NC(=O)Nc2ccc(F)c(Cl)c2)no1`, the “re-replication activation” value is reported as inactive: -1.37%.
With `O=C1NCCN(Cc2ccoc2)C1CC(=O)N(CCO)Cc1ccccc1` (stereo not given) the Potency was active: 18.4 µM.
In the case of `CCN(C(=O)CSc1n[nH]c(N)n1)C1CCCCC1`, the Potency is reported as inconclusive: 5.8 µM [activator, partial curve, poor fit].
In the case of `COC(=O)[C@H](C)NC(=O)Nc1ccc(Oc2ccccc2)cc1`, the “re-replication activation” value is reported as inactive: 11%.
In the case of `Cc1ccc(C(C(=O)NC2CCCCC2)N(Cc2ccco2)C(=O)Cc2c[nH]c3ccccc23)o1` (stereo not given), the “re-replication activation” value is reported as inactive: 11.9%.
For `CCCN(CCC)c1nc2c(C)cccn2c(=O)c1/C=C1/SC(=S)N(Cc2ccco2)C1=O`, the Potency was inconclusive: 23.1 µM [activator, single point].
In the case of `O=C(Nc1cccc(NC(=O)c2cccc(Cl)c2)c1)c1cccnc1`, the Potency is reported as inconclusive: 2.06 µM [activator, single point].
In the case of `CCN(CC(=O)Nc1c(F)cccc1F)C(=O)CNC(=O)C1CCCCC1`, the Potency is reported as inconclusive: 0.0651 µM [activator, full curve, poor fit].
With `Cc1cc(C)c2cc(CN(CCO)C(=O)Nc3ccc(Cl)cc3)c(=O)[nH]c2c1` the Potency was inconclusive: 18.4 µM [activator, partial curve, poor fit].
With `COc1cccc(CNc2ncc(-c3ccccc3)n2C)c1` the Potency was inconclusive: 29.1 µM [activator, single point].
In the case of `COc1ccc2nc3c(cc2c1)c(NC(=O)CC(C)C)nn3CC(C)C`, the Potency is reported as active: 8.2 µM.
In the case of `COc1ccc(C(=O)CC(=O)c2ccc(OC)cc2)cc1`, the “re-replication activation” value is reported as inactive: 1.42%.
With `CCc1ccc(C(C)(O)C(CN2CCOCC2)c2ccccc2)cc1` (stereo not given) the “re-replication activation” value was inactive: -1.06%.
For `O=C1C(Nc2ccccc2)=C/C(=N/S(=O)(=O)c2cccs2)c2ccccc21`, the Potency was active: 5.8 µM.
For `COc1ccc2c(c1)sc(N)[n+]2Cc1cc(C)cc2cccnc12`, the Potency was active: 8.2 µM.
For `CC(C)C[C@@]12C(=O)N(c3cccc(F)c3)C(=O)N1[C@H](c1ccc(F)cc1)[C@@H]1C(=O)N(C3CCCCC3)C(=O)[C@@H]12`, the Potency was inconclusive: 29.1 µM [activator, single point].
In the case of `Cc1ccc(S(=O)(=O)/C(C#N)=C/c2c[nH]c3ccccc23)cc1`, the Potency is reported as inconclusive: 25.9 µM [activator, partial curve, poor fit].
In the case of `COc1ccc(NC(=S)N/N=C2\CC(C)(C)Oc3ccc(O)cc32)cc1`, the “re-replication activation” value is reported as inactive: -6.92%.
With `S=c1[nH]nc(C2CCCCC2)n1/N=C/c1ccc(Cl)cc1` the Potency was inconclusive: 25.9 µM [activator, single point].
For `COc1ccc(N2CC(C(=O)NNC(=O)c3ccc(Br)cc3)CC2=O)c(OC)c1` (stereo not given), the Potency was inconclusive: 29.1 µM [activator, single point].
For `Cc1ccc(NCc2ccc(O)c3ncccc23)cc1C`, the “re-replication activation” value was inactive: 25.8%.
For `Cc1ccccc1N1CCN(C(=O)c2ccc(Oc3ccc(C(F)(F)F)cn3)cc2)CC1`, the Potency was inconclusive: 12.6 µM [activator, partial curve, poor fit].
With `Cc1cc2oc(=O)cc(Cn3ncc(Cl)c(Cl)c3=O)c2cc1Cl` the Potency was active: 2.59 µM.
For `COc1ccc(C2CC(c3cccs3)=NN2C(=O)CSc2nncs2)cc1OC` (stereo not given), the Potency was inconclusive: 18.4 µM [activator, single point].
In the case of `CCc1nnc(NC(=O)CSc2nnc(C)n2CC2CCCO2)s1` (stereo not given), the “re-replication activation” value is reported as inactive: -1.71%.
For `COC1=CC(=O)CC(C)C12Oc1c(Cl)c(OC)cc(OC)c1C2=O` (stereo not given), the Potency was active: 23.1 µM.
For `CC(C)(C)c1ccc(C(=O)Nc2ccc(S(=O)(=O)Nc3cnc4ccccc4n3)cc2)cc1`, the “re-replication activation” value was inactive: 11.3%.
With `CCOc1ccccc1NC(=O)c1ccc2c(c1)C(=O)N(CC)C2=O` the Potency was inconclusive: 6.51 µM [activator, single point].
For `C[C@@H](C(=O)Nc1ccc2ccccc2c1)[C@H]1C[C@]1(C)[C@H](NC(=O)c1cccnc1)c1ccccc1`, the “re-replication activation” value was inactive: 14.5%.
In the case of `O=C(NCCc1ccccc1)C(=O)NCC1CCCN1S(=O)(=O)c1ccccc1` (stereo not given), the Potency is reported as active: 18.4 µM.
With `CS(=O)(=O)Nc1cccc(C(=O)CC2(O)C(=O)Nc3ccc(Br)cc32)c1` (stereo not given) the Potency was inconclusive: 16.4 µM [activator, single point].
In the case of `COc1ccc(Cl)cc1C(Nc1cccnc1)c1ccc2cccnc2c1O` (stereo not given), the Potency is reported as active: 7.31 µM.
